Counter-ions that a name gives are not always drawn. ± gives the standard deviation of the averaged measurements. This is one part of the list. This data set is noisy: repeats of one test often differ as much as different tests do.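 Cells were counted by imaging DAPI-stained nuclei, and cells lacking phalloidin-stained cytoplasm were excluded as dead. Each well's count was divided by the median count of the vehicle wells on the same plate, and values were averaged over two replicate plates.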
Test system: OVCAR8
Experiment: cell count relative to DMSO vehicle (fold change); higher = more surviving senescent cells (less killing)
Details: senescence inducer: cisplatin 10 µM 48 h, then 6 d recovery (CP senescent), exposure time 24 h

SMILES | cell count (compound dose 1 µM) | cell count (compound dose 5 µM)
COc1cc(OC)c(C=C2C(=O)Nc3ccccc32)c(OC)c1 | 1.02 ± 0.13 | 1.07 ± 0.011
CO[C@@H]1[C@@H](OC(N)=O)[C@@H](O)[C@H](Oc2ccc3c(O)c(NC(=O)c4ccc(O)c(CC=C(C)C)c4)c(=O)oc3c2C)OC1(C)C [Novobiocin (Sodium)] | 0.986 ± 0.2 | 0.975 ± 0.059
O=Nc1c(-c2c(O)[nH]c3cc(Br)ccc23)[nH]c2ccccc12 [GSK 3 Inhibitor IX] | 0.597 ± 0.03 | 0.402 ± 0.015
CN(NC(=O)CC(=O)NN(C)C(=S)c1ccccc1)C(=S)c1ccccc1 [Elesclomol] | 0.261 ± 0.1 | 0.282 ± 0.22
Clc1ccc(-c2csc(NN=C3CCCC3)n2)cc1 | 0.889 ± 0.15 | 0.879 ± 0.018
COc1cc2c(cc1OC)[C@@H](Cc1ccc(O)c(Oc3cc4c(cc3OC)CCN(C)[C@@H]4Cc3ccc(O)cc3)c1)N(C)CC2 [Liensinine] | 0.695 ± 0.33 | 0.74 ± 0.061
Cc1ncc([N+](=O)[O-])n1CCO [Metronidazole] | 1.27 ± 0.12 | 1.02 ± 0.24
CC(C)=CCc1cc(-c2coc3cc(O)ccc3c2=O)ccc1O [Neobavaisoflavone] | 0.935 ± 0.033 | 0.457 ± 0.18
Cc1ccc(-c2c(C#N)c(N)n3c(nc4ccccc43)c2C#N)cc1 | 1.361 ± 0.011 | 1.2 ± 0.22
O=C([O-])c1ccccc1O.[Na+] [Sodium Salicylate] | 1.13 ± 0.25 | 0.648 ± 0.37
COc1ccc2[nH]cc(CCNC(C)=O)c2c1 | 0.915 ± 0.19 | 0.677 ± 0.41
Cc1ccc(C(=O)c2cc(O)c(O)c([N+](=O)[O-])c2)cc1 [Tolcapone] | 0.819 ± 0.012 | 0.835 ± 0.026
C=CC[C@@H]1/C=C(\C)C[C@H](C)C[C@H](OC)[C@H]2O[C@@](O)(C(=O)C(=O)N3CCCC[C@H]3C(=O)O[C@H](/C(C)=C/[C@@H]3CC[C@@H](O)[C@H](OC)C3)[C@H](C)[C@@H](O)CC1=O)[C@H](C)C[C@@H]2OC [Tacrolimus (monohydrate)] | 0.917 ± 0.088 | 0.621 ± 0.13
O=c1c(O)c(-c2cc(O)c(O)c(O)c2)oc2cc(O)cc(O)c12 | 0.801 ± 0.048 | 0.607 ± 0.23
COc1ccc(-c2cc(=O)c3c(O)cc(O)cc3o2)cc1 | 1.13 ± 0.18 | 1.15 ± 0.064
Cc1ccc(NC(=O)c2ccc(CN3CCN(C)CC3)cc2)cc1Nc1nc(-c2cccnc2)cs1 [Masitinib (AB1010)] | 0.868 ± 0.16 | 0.883 ± 0.27
O=C(COCC(=O)Nc1ccc(Cl)cc1C(=O)O)Nc1cccc(-c2ccoc2)c1 | 0.947 ± 0.15 | 1.15 ± 0.12
Cc1ccc(-c2nn(C(C)(C)CNC(=O)c3ccncc3)c3ncnc(N)c23)cc1 | 0.855 ± 0.078 | 0.765 ± 0.096
CCO[C@@H]1OC(=O)C[C@@H]1NC(=O)[C@@H]1CCCN1C(=O)[C@@H](NC(=O)c1ccc(N)c(Cl)c1)C(C)(C)C [Belnacasan] | 1.3 ± 0.19 | 1.17 ± 0.036
C[C@H]1[C@@H](O)O[C@@H]2O[C@@]3(C)CC[C@H]4[C@H](C)CC[C@@H]1[C@@]24OO3 [Dihydroartemisinin] | 1.04 ± 0.13 | 0.936 ± 0.14
O=c1n(CC2CO2)c(=O)n(CC2CO2)c(=O)n1CC1CO1 (stereo unspecified) [Triglycidyl isocyanurate] | 1.091 ± 0.005 | 1.14 ± 0.018
CCOC(=O)c1ccc(N2NC(=O)C(=Cc3ccc([N+](=O)[O-])o3)C2=O)cc1 | 1.04 ± 0.025 | 1.05 ± 0.073

SMILES | cell count (compound dose 1 µM) | cell count (compound dose 5 µM)
N#CN=C(NCCCCCCOc1ccc(Cl)cc1)Nc1ccncc1 | 1.02 ± 0.25 | 0.897 ± 0.36
CCNC(=O)c1noc(-c2cc(Cl)c(O)cc2O)c1-c1ccc(OC)cc1 | 0.391 ± 0.038 | 0.351 ± 0.018
CC(C)=CCC[C@](C)(O[C@@H]1O[C@H](CO)[C@@H](O)[C@H](O)[C@H]1O)[C@H]1CC[C@]2(C)[C@@H]1[C@H](O)C[C@@H]1[C@@]3(C)CC[C@H](O)C(C)(C)[C@@H]3[C@@H](O[C@@H]3O[C@H](CO)[C@@H](O)[C@H](O)[C@H]3O[C@@H]3OC[C@@H](O)[C@H](O)[C@H]3O)C[C@]12C [Notoginsenoside R1] | 1.18 ± 0.12 | 0.64 ± 0.55
C/C=C(/C)C(=O)OC(C)(C)[C@@H]1Cc2c(ccc3ccc(=O)oc23)O1 [Columbianadin] | 0.844 ± 0.099 | 0.814 ± 0.069
C[C@]12C=CC(=O)C=C1CC[C@@H]1[C@@H]2C(=O)C[C@@]2(C)[C@H]1CC[C@]2(O)C(=O)CO | 0.998 ± 0.011 | 0.673 ± 0.42
COC(=O)CC[C@H](NC(=O)[C@H](CC(=O)OC)NC(=O)OCc1ccccc1)C(=O)N[C@H](C(=O)N[C@@H](CC(=O)OC)C(=O)CF)C(C)C | 1.04 ± 0.078 | 0.927 ± 0.052
Fc1ccc(Nc2nc3ccccc3nc2Nc2ccc(F)cc2)cc1 | 1.18 ± 0.098 | 0.926 ± 0.088
CCC[C@H](NC(=O)/C(C#N)=C/c1cccc(Br)n1)c1ccccc1 [Degrasyn] | 1.16 ± 0.077 | 0.116 ± 0.034
CC(=O)Nc1c(I)c(NC(C)=O)c(I)c(C(=O)O)c1I | 0.892 ± 0.27 | 0.471 ± 0.07
CC(=O)Nc1c(I)c(NC(C)=O)c(I)c(C(=O)O)c1I [Sodium diatrizoate] | 0.976 ± 0.026 | 0.979 ± 0.22
O=C(Nc1cccc(-c2nncn2C2CC2)c1)c1cc(-n2cnc(C3CC3)c2)ccn1 | 1 ± 0.071 | 1.026 ± 0.0021
CCC(C)(C)C(=O)C(=O)N1CCC[C@H]1C(=O)OCCCc1cccnc1 | 1.17 ± 0.049 | 1.09 ± 0.17
CN1CCCC(CN2c3ccccc3Sc3ccccc32)C1 (stereo unspecified) [Mepazine (hydrochloride)] | 0.785 ± 0.0014 | 0.792 ± 0.15
CN[C@@H](C)C(=O)N[C@H](C(=O)N1CCC[C@H]1C(=O)Nc1snnc1-c1ccccc1)C1CCCCC1 | 0.534 ± 0.032 | 0.298 ± 0.2
O=C(/C=C/c1ccc2ccc(C(F)(F)F)cc2n1)c1ccncc1 | 0.991 ± 0.098 | 0.116 ± 0.025
Cc1ccc(/C=N/NC(=O)c2ccccc2Oc2ccccc2)o1 | 1.04 ± 0.11 | 1.05 ± 0.08
CC(C)(O)CC[C@@H](O)[C@](C)(O)[C@H]1CC[C@@]2(O)C3=CC(=O)[C@@H]4C[C@@H](O)[C@@H](O)C[C@]4(C)[C@H]3CC[C@]12C | 0.905 ± 0.0085 | 0.703 ± 0.076
C[n+]1cccc(C(=O)[O-])c1 | 0.836 ± 0.1 | 0.741 ± 0.088
COc1cc(C)c(/C=C/C(C)=C/C=C/C(C)=C/C(=O)O)c(C)c1C [Acitretin] | 1.02 ± 0.083 | 1 ± 0.15
O=c1[nH]c(=O)n([C@H]2C[C@H](O)[C@@H](CO)O2)cc1F [Floxuridine] | 0.987 ± 0.11 | 0.834 ± 0.16
COc1cc2c(NC3CCN(C)CC3)cc(-c3ccc(C)o3)nc2cc1OCCCN1CCCC1 | 0.875 ± 0.14 | 0.486 ± 0.077

Reformatted comma-delimited: part of the list above
SMILES,cell count (compound dose 1 µM),cell count (compound dose 5 µM)
CC(C)=CCC[C@](C)(O[C@@H]1O[C@H](CO)[C@@H](O)[C@H](O)[C@H]1O)[C@H]1CC[C@]2(C)[C@@H]1[C@H](O)C[C@@H]1[C@@]3(C)CC[C@H](O)C(C)(C)[C@@H]3[C@@H](O[C@@H]3O[C@H](CO)[C@@H](O)[C@H](O)[C@H]3O[C@@H]3OC[C@@H](O)[C@H](O)[C@H]3O)C[C@]12C [Notoginsenoside R1],1.18 ± 0.12,0.64 ± 0.55
C/C=C(/C)C(=O)OC(C)(C)[C@@H]1Cc2c(ccc3ccc(=O)oc23)O1 [Columbianadin],0.844 ± 0.099,0.814 ± 0.069
C[C@]12C=CC(=O)C=C1CC[C@@H]1[C@@H]2C(=O)C[C@@]2(C)[C@H]1CC[C@]2(O)C(=O)CO,0.998 ± 0.011,0.673 ± 0.42
COC(=O)CC[C@H](NC(=O)[C@H](CC(=O)OC)NC(=O)OCc1ccccc1)C(=O)N[C@H](C(=O)N[C@@H](CC(=O)OC)C(=O)CF)C(C)C,1.04 ± 0.078,0.927 ± 0.052
Fc1ccc(Nc2nc3ccccc3nc2Nc2ccc(F)cc2)cc1,1.18 ± 0.098,0.926 ± 0.088
CCC[C@H](NC(=O)/C(C#N)=C/c1cccc(Br)n1)c1ccccc1 [Degrasyn],1.16 ± 0.077,0.116 ± 0.034
CC(=O)Nc1c(I)c(NC(C)=O)c(I)c(C(=O)O)c1I,0.892 ± 0.27,0.471 ± 0.07
CC(=O)Nc1c(I)c(NC(C)=O)c(I)c(C(=O)O)c1I [Sodium diatrizoate],0.976 ± 0.026,0.979 ± 0.22
O=C(Nc1cccc(-c2nncn2C2CC2)c1)c1cc(-n2cnc(C3CC3)c2)ccn1,1 ± 0.071,1.026 ± 0.0021
CCC(C)(C)C(=O)C(=O)N1CCC[C@H]1C(=O)OCCCc1cccnc1,1.17 ± 0.049,1.09 ± 0.17
CN1CCCC(CN2c3ccccc3Sc3ccccc32)C1 (stereo unspecified) [Mepazine (hydrochloride)],0.785 ± 0.0014,0.792 ± 0.15
CN[C@@H](C)C(=O)N[C@H](C(=O)N1CCC[C@H]1C(=O)Nc1snnc1-c1ccccc1)C1CCCCC1,0.534 ± 0.032,0.298 ± 0.2
